Results: patent US11642345B2, “Replication stress pathway agent compositions and methods for treating cancer” (Boundless Bio, Inc., priority 2020, dated 2023)

System: HeLa cells
Assay: HeLa cell confluence by high-content microscopy over three weeks, with or without 100 nM methotrexate
Assay type: cell-based
Settings: without methotrexate, 10-300 nM tested
Protocol: Cell confluence was measured via high-content microscopy over the time course.
HeLa cells were treated with a WEE1 inhibitor, 0.01-0.3 μM adavosertib alone, with 1 nM-100 nM PD0166285, with 100 nM methotrexate alone, or with a combination of 0.01-0.3 μM adavosertib and 100 nM methotrexate or a combination of 1 nM-100 nM PD0166285 and 100 nM methotrexate over the course of three weeks. Cell confluence was measured via high-content microscopy over the time course.
HeLa cells were treated with a PARG inhibitor, 3-100 μM PD00017273 with (FIG. 35 top panel) or without (FIG. 35 bottom panel) 100 nM methotrexate over the course of 3 weeks. Cell confluence was measured via high-content microscopy over the time course.
Cell confluence was measured via high-content microscopy over the time course. […] However.

C[C@@H]1COCCN1c1cc(-c2ccnn2C)c2ccnc(-c3ccn[nH]3)c2n1 [BAY1895344]
toxicity on its own, concentration: above 10 nM
